Source: patent EP1054668B1 (CENTRE NATIONAL DE LA RECHERCHE SCIENTIFIQUE (CNRS), priority 1998, dated 1999)

System: rats pigmentés Brown-Norway

Nc1nc2ccc(OC(F)(F)F)cc2s1 [riluzole, 2-amino-6-trifluoromethoxy benzothiazole]
protection (ERG) à des temps plus courts de reperfusion (2 days after ischemia, local application before ischemia, compared with the other regimens): la protection la plus efficace
amplitude de l'onde "b" (7 days reperfusion, all routes (IP or local) and timings (before or after ischemia)): ~75 % de la valeur contrôle
ondes "a" et "b" de l'ERG (local application, pre- or post-treatment, one week of reperfusion): proches de l'amplitude de celles d'animaux "Témoins"
amplitude des ondes "a" et "b" chez des rats non-ischémiés (non-ischemic rats treated with riluzole): n'est pas affectée par le traitement
